Measurements taken from patent publication US20250340592A1, “MAMMALIAN MILK-DERIVED PEPTIDES WITH ANTIMICROBIAL ACTIVITY” (MATRUBIALS INC., priority 2022, published 2025).
“Also recorded” adds a separate entry of the source. Part of at least one peptide drawing is inferred or uncertain, most often the ends. Where no end group is shown, it is not given here.

Experiments:
S. aureus MRSA [1] = experiment: direct kill assay of formulated peptide (FIG. 13); assay type: cell-based, Staphylococcus aureus; conditions: 0.5% by weight peptide in 20% propylene glycol and 2% hydroxypropyl cellulose
Description: FIG. 13 depicts the retention of antimicrobial activity of the indicated peptides M6 (SEQ ID NO: 26), M14 (SEQ ID NO:177), M16 (SEQ ID NO: 213) and M22 (SEQ ID NO: 291), with each peptide formulated in a composition with 20% propylene glycol and 2% hydroxypropyl cellulose (F is the formulation without a peptide), in the presence of S. aureus MRSA, from 0 minutes (min) to 60 minutes, as indicated, where the amount of growth is indicated as: 4 is full growth; 3 is too many colonies to count; 2 is countable colonies; and 1 is no growth.
In FIG. 13, the impact of the formulation comprising 20% propylene glycol and 2% hydroxypropyl cellulose and 0.5% by weight of peptide M6 (SEQ ID NO: 26), M7 (SEQ ID NO: 31), M14 (SEQ ID NO: 177), M16 (SEQ ID NO: 213), or M22 (SEQ ID NO: 291) was tested using a direct kill assay.

S. aureus MRSA [2] = experiment: colony-forming assay, CFU/ml over time (FIG. 10B); assay type: cell-based, Staphylococcus aureus; conditions: peptide 0.5% (5 mg/ml); for sensitivity of S. aureus to peptide (CFU/ml): 0.8% NaCl, T=0 up to 60 minutes; for sensitivity of S. aureus MRSA to peptide as compared to Indolicidin: after 20 minutes
Text: (§1) FIGS. 10A, 10B, and 10C are graphs depicting bacterial viability in colony forming units (CFU) per milliliter (ml) over time (minutes) in the presence of select polypeptides: SEQ ID NO: 26 (M6); SEQ ID NO: 31 (M7); SEQ ID NO: 177 (M14); SEQ ID NO: 213 (M16); and SEQ ID NO: 291 (M22) in comparison to Indolicidin (IND) in the presence of P. aeruginosa (FIG. 10A), S. aureus MRSA (FIG. 10B), and S. epidermidis (FIG. 10C), respectively.
(§2) In FIGS. 10A, 10B, and 10C, quantitative colony-forming units/ml were assayed using the indicated peptides at a final concentration of 0.5% (5 mg/ml). For this colony-forming assay, peptides were incubated with indicated bacterial strains in 0.8% NaCl, and aliquots were removed starting time T=0, up to 60 minutes, followed by serial dilution and plating on Tryptic soy agar plates for overnight incubation, and enumeration of CFU/ml.

P. aeruginosa [3] = experiment: time-kill assays (FIG. 9); assay type: cell-based, Pseudomonas aeruginosa; conditions: as compared to M1-M5
Description: FIG. 9. depicts the antibiotic activity (in concentration of polypeptide at 0.375 mg/ml (****), 0.75 mg/ml (***), 1.5 mg/ml (**), or 3 mg/ml (*), as indicated) for each of polypeptides (SEQ ID NO: 1 (M1); SEQ ID NO: 6 (M2); SEQ ID NO: 11 (M3); SEQ ID NO: 16 (M4); SEQ ID NO: 21 (M5); SEQ ID NO: 26 (M6); SEQ ID NO: 31 (M7); SEQ ID NO: 36 (M8); SEQ ID NO: 41 (M9); SEQ ID NO: 76 (M10); SEQ ID NO: 106 (M11); SEQ ID NO: 141 (M12); SEQ ID NO: 142 (M13); SEQ ID NO: 177 (M14); SEQ ID NO:178 (M15); SEQ ID NO: 213 (M16); SEQ ID NO: 219 (M18), SEQ ID NO: 220 (M19); SEQ ID NO: 256 (M21); and SEQ ID NO: 291 (M22)) against P. aeruginosa and S. aureus MRSA, as indicated.
In FIG. 9, the bacterial pathogens P. aeruginosa and S. aureus—associated with skin, burn and wound infections were tested.

S. epidermidis = experiment: colony-forming assay, CFU/ml over time (FIG. 10C); assay type: cell-based, Staphylococcus epidermidis; conditions: peptide 0.5% (5 mg/ml), 0.8% NaCl, T=0 up to 60 minutes
Text: as §1, §2

S. aureus MRSA [4] = experiment: modified CLSI-based broth dilution method (FIG. 16); assay type: cell-based, Staphylococcus aureus; conditions: 250 μg/ml peptide, 0.01×MH broth
P. aeruginosa [5] = experiment: colony-forming assay, CFU/ml over time (FIG. 10A); assay type: cell-based, Pseudomonas aeruginosa; conditions: peptide 0.5% (5 mg/ml); for sensitivity of P. aeruginosa to peptide (CFU/ml): 0.8% NaCl, T=0 up to 60 minutes; for sensitivity of P. aeruginosa to peptide as compared to Indolicidin: after 20 minutes
Text: as §1, §2

L. crispatus [6] = experiment: direct kill assay (time-kill, FIG. 8); assay type: cell-based, Lactobacillus crispatus; conditions: 0.375, 0.75, 1.5 mg/ml peptide, spotted 30 min post incubation
Description: (§3) For these peptides, 0.375 mg/ml concentration is sufficient to cause loss of viability of G. vaginalis and L. iners as compared to the absence of peptides. In FIG. 8A, M1-M8 peptides (SEQ ID NOS: 1, 6, 11, 16, 21, 26, 31, and 36) were tested using direct kill assays. Equal inoculums of G. vaginalis, L. iners and L. crispatus were incubated with either water (0.00), or 0.375 mg/ml, 0.75 mg/ml and 1.5 mg/ml. of peptides. Aliquots were spotted 30 minutes (min) post incubation on human blood tween (HBT) bilayer media, Tryptic soy agar (+5% sheep blood) or MRS (de Man, Rogosa, and Sharpe) agar plates respectively. For these peptides, 0.375 mg/ml concentration is sufficient to cause loss of viability of G. vaginalis and L. iners as compared to the absence of peptides.

L. iners = experiment: direct kill assay (time-kill, FIG. 8); assay type: cell-based, Lactobacillus iners; conditions: 0.375, 0.75, 1.5 mg/ml peptide, spotted 30 min post incubation
Description: as §3

L. crispatus [7] = experiment: direct kill assay of formulated peptide (FIG. 12C); assay type: cell-based, Lactobacillus crispatus; conditions: 0.5% peptide in 20% propylene glycol and 2% hydroxypropyl cellulose, 0-60 min
G. vaginalis biofilm = experiment: biofilm disruption assay (crystal violet); assay type: cell-based, Gardnerella vaginalis; conditions: 0.02 mg/ml, 0.2 mg/ml and 2 mg/ml M6
G. vaginalis = experiment: direct kill assay (time-kill, FIG. 8); assay type: cell-based, Gardnerella vaginalis; conditions: 0.375, 0.75, 1.5 mg/ml peptide, spotted 30 min post incubation
Description: as §3

Sequence | antibacterial activity against S. aureus MRSA in formulation (S. aureus MRSA [1]) | sensitivity of S. aureus to peptide (CFU/ml) (S. aureus MRSA [2]) | sensitivity of S. aureus MRSA to peptide as compared to Indolicidin (S. aureus MRSA [2]) | effectiveness in reducing the viability of P. aeruginosa (P. aeruginosa [3]) | sensitivity of S. epidermidis to peptide (CFU/ml) (S. epidermidis) | efficacy on S. aureus MRSA, M14 at 4 hours compared to M16 at 24 hours (S. aureus MRSA [4]) | sensitivity of P. aeruginosa to peptide (CFU/ml) (P. aeruginosa [5]) | sensitivity of P. aeruginosa to peptide as compared to Indolicidin (P. aeruginosa [5]) | polypeptides target L. crispatus (time-kill images) (L. crispatus [6]) | polypeptides target L. iners (time-kill images) (L. iners) | susceptibility of L. crispatus to peptide (L. crispatus [7]) | disruption of G. vaginalis biofilm (decrease in crystal violet dye) (G. vaginalis biofilm) | polypeptides target G. vaginalis (time-kill images) (G. vaginalis)
RGPPKSCRKRD [M14, RGPPKSCRKRD] | retains antibacterial activity | also sensitive | more sensitive | more effective | also sensitive | more efficacious | particularly sensitive | more sensitive | – | – | – | – | –
RPRIPKASAK [M6, RPRIPKASAK] | retains antibacterial activity | also sensitive | more sensitive | more effective | also sensitive | – | particularly sensitive | more sensitive | not L. crispatus | target | not susceptible | crystal violet dye was reduced; also recorded: disruption of G. vaginalis is observed | target
